Laboratory results taken from patent US20230365617A1, “SAPONIN DERIVATIVES FOR USE IN MEDICINE” (priority 2020, published 2023).

Tested on: EGFR expressing cells (HeLa)
Type: cell-based, human
Conditions: red blood cells vs HeLa cells (Table A5)

| Structure (SMILES) | Ratio: IC50 hemolysis / IC50 activity |
| --- | --- |
| CC(=O)OC1C(C)OC(OC2C(C)OC(OC(=O)[C@]34CCC(C)(C)CC3C3=CCC5[C@@]6(C)CC[C@H](OC7OC(C(=O)O)C(O)C(OC8OCC(O)C(O)C8O)C7OC7OC(CO)C(O)C(O)C7O)[C@@](C)(CO)C6CC[C@@]5(C)[C@]3(C)C[C@H]4O)C(OC3OC(C)C(OC4OCC(O)C(OC5OC(CO)C(O)C(O)C5O)C4O)C(O)C3O)C2O)C(O)C1OC1OCC(O)C(O)C1O (some centres unmarked) [SO1861-Ald-OH] | 88 |
| CC(=O)OC1C(C)OC(OC2C(C)OC(OC(=O)[C@]34CCC(C)(C)CC3C3=CCC5[C@@]6(C)CC[C@H](OC7OC(C(=O)NCCN8C(=O)C=CC8=O)C(O)C(OC8OCC(O)C(O)C8O)C7OC7OC(CO)C(O)C(O)C7O)[C@@](C)(CO)C6CC[C@@]5(C)[C@]3(C)C[C@H]4O)C(OC3OC(C)C(OC4OCC(O)C(OC5OC(CO)C(O)C(O)C5O)C4O)C(O)C3O)C2O)C(O)C1OC1OCC(O)C(O)C1O (some centres unmarked) [SO1861-(Glu-AEM)-(Ald-OH)] | >25 |
